Experimental data published in article PMC8947326.
Results are given in words; binding and its absence hold for the method and conditions named. In cells and extracts the contact can be indirect. Some results given as binding are weak or reduced against the parent protein; the word gives no strength.

The chains behind the UniProt entries cited, without tags or fusion partners.
UniProt P29067: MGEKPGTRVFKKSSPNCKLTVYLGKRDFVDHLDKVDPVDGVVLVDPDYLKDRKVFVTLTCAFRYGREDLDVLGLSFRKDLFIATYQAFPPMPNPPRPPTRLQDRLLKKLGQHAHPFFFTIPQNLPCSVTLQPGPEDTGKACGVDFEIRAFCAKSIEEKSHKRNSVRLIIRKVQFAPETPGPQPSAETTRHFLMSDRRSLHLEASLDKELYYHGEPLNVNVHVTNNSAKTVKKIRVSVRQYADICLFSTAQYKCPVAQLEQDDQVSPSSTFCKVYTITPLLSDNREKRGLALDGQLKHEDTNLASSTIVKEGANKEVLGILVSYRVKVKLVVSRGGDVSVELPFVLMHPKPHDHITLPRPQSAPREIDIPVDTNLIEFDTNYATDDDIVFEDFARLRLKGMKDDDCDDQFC
UniProt P49407: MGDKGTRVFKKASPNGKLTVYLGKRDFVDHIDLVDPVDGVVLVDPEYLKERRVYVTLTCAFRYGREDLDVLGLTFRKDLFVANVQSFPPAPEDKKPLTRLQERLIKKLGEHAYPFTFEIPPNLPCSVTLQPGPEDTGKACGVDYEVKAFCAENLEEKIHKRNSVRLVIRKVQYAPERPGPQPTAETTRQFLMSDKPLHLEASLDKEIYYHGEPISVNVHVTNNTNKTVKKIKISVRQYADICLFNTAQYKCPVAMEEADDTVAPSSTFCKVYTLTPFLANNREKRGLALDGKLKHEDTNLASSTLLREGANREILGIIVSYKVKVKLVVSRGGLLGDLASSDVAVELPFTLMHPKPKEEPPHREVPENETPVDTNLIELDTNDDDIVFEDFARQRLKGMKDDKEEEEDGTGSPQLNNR
UniProt P32121: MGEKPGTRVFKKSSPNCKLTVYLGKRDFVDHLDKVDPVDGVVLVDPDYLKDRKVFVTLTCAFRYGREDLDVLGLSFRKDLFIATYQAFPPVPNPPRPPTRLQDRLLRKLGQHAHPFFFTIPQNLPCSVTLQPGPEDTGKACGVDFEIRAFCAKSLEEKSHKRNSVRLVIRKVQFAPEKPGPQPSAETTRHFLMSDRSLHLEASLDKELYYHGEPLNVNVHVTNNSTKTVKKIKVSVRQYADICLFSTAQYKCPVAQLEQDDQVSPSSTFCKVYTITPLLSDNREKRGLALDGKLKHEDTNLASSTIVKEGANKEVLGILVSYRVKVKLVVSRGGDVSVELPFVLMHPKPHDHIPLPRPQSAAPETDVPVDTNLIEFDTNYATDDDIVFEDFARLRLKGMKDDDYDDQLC

How the values were obtained:
hGPR1-Venus (human) [1] = target: T1, hGPR1-Venus (human) (UniProt P46091); assay: FRET or BRET; real-time BRET1 in living HEK293T cells co-expressing β-arrestin fused to RLuc (donor) and receptor fused to Venus (acceptor); basal conditions, before chemerin; 25 °C; 5 µM Enduren; Net BRET
T1 sequence: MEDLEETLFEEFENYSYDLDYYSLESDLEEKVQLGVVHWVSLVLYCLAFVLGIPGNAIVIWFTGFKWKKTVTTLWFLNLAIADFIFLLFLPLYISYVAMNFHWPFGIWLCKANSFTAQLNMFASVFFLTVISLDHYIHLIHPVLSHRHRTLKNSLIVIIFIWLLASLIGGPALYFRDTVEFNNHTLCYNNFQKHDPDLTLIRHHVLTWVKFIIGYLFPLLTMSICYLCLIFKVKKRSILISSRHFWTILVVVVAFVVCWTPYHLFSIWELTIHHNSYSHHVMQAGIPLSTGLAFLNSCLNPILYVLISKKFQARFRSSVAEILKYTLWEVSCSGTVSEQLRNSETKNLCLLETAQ

mGPR1-Venus (mouse) [2] = target: T2, mGPR1-Venus (mouse) (UniProt Q8K087); assay: as above
T2 sequence: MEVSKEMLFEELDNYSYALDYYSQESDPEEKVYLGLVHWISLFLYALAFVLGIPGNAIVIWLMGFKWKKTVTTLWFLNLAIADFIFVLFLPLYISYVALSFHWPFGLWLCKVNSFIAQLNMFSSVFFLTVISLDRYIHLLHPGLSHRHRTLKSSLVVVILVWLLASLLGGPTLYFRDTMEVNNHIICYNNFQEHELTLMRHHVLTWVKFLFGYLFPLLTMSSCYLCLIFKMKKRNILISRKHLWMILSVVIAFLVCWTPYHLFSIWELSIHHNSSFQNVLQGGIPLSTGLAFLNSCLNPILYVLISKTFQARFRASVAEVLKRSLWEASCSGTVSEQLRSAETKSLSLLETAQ

hGPR1-Venus (human) [3] = target: T1, hGPR1-Venus (human); assay: FRET or BRET; real-time BRET1 in living HEK293T cells co-expressing β-arrestin fused to RLuc (donor) and receptor fused to Venus (acceptor); after stimulation with 100 nM chemerin; 25 °C; 5 µM Enduren; Net BRET
mGPR1-Venus (mouse) [4] = target: T2, mGPR1-Venus (mouse); assay: as above
hGPR1-Venus (human) [5] = target: T1, hGPR1-Venus (human); assay: FRET or BRET; BRET titration in HEK293T cells: constant amount of β-arrestin-RLuc, increasing amounts of receptor fused to Venus; no chemerin; BRETMax by GraphPad Prism
mGPR1-Venus (mouse) [6] = target: T2, mGPR1-Venus (mouse); assay: as above

Substance	binding (hGPR1-Venus (human) [1])	binding (mGPR1-Venus (mouse) [2])	binding (hGPR1-Venus (human) [3])	binding (mGPR1-Venus (mouse) [4])	binding (hGPR1-Venus (human) [5])	binding (mGPR1-Venus (mouse) [6])
rat β-arrestin 2 (from UniProt P29067 1-410)	binds weakly	binds	binds	binds	–	–
β-arrestin1-RLuc (from UniProt P49407 1-418)	binds weakly	binds	binds	binds	binds weakly	binds
β-arrestin2-RLuc (from UniProt P32121 1-409)	–	binds	–	binds	–	binds
